Screening data, single-dose tests

Chains of the proteins cited; added tags and fusions are not shown. Residues count along the entry.
UniProt I6X8D2, whole entry: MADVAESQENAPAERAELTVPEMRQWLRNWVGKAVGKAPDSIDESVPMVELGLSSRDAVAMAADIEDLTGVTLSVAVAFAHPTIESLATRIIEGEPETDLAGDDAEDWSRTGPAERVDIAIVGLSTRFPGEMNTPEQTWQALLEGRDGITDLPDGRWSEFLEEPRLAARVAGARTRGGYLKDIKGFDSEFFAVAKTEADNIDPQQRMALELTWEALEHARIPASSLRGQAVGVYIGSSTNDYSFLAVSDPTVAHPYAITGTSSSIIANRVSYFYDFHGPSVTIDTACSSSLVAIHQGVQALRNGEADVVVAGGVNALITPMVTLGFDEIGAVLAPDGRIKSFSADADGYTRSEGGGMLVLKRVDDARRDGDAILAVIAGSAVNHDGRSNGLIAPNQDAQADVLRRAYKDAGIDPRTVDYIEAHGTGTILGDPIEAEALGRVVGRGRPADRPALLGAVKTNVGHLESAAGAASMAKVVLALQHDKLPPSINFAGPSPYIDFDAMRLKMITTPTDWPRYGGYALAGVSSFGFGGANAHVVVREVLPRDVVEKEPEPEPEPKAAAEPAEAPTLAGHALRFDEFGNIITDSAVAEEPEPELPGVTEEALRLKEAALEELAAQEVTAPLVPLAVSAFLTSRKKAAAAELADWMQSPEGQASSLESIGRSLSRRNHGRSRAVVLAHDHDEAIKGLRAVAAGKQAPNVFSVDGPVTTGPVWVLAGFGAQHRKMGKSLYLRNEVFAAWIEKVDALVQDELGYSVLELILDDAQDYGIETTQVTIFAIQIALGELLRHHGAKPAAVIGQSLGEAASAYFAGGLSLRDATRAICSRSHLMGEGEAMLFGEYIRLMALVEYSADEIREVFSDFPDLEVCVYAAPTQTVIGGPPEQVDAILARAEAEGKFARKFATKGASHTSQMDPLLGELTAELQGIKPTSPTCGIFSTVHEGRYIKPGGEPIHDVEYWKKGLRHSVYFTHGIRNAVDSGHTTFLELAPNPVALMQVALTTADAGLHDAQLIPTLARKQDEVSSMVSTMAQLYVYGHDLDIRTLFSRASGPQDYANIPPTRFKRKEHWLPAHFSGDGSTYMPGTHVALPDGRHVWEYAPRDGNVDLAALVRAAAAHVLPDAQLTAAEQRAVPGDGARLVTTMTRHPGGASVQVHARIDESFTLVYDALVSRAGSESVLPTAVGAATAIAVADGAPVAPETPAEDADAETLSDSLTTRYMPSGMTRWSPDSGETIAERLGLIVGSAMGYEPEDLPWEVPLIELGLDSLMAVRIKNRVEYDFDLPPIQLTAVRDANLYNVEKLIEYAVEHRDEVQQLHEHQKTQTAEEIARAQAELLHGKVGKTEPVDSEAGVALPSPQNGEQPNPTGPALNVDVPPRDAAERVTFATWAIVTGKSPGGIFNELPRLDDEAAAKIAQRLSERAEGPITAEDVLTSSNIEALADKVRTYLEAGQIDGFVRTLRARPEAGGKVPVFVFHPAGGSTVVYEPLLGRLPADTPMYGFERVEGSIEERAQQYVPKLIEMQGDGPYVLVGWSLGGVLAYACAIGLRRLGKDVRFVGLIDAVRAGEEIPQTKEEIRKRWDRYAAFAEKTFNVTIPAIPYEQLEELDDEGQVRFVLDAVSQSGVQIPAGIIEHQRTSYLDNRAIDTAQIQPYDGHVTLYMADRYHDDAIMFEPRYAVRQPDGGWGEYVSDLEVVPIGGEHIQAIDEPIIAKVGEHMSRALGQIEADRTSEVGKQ
UniProt P9WNZ1, whole entry: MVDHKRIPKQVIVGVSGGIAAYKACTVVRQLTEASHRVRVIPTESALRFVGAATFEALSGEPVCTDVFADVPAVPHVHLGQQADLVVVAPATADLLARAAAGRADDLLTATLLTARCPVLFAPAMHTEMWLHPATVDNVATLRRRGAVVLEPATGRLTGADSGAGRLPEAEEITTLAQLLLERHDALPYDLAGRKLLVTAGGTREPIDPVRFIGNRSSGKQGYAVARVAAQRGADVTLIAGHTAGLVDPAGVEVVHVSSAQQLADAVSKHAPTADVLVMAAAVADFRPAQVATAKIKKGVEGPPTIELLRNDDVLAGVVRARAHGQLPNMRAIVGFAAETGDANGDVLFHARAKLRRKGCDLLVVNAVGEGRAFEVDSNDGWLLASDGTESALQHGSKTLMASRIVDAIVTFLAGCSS
UniProt P9WFT3, whole entry: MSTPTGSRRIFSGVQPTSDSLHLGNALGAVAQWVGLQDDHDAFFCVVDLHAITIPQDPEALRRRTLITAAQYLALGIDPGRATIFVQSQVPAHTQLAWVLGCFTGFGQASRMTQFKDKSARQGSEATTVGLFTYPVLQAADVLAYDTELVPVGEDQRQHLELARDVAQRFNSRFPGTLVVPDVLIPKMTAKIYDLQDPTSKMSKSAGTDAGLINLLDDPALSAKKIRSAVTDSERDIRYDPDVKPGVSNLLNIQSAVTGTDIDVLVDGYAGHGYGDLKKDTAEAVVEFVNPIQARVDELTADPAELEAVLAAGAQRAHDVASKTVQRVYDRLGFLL
UniProt A4I591, 1-473: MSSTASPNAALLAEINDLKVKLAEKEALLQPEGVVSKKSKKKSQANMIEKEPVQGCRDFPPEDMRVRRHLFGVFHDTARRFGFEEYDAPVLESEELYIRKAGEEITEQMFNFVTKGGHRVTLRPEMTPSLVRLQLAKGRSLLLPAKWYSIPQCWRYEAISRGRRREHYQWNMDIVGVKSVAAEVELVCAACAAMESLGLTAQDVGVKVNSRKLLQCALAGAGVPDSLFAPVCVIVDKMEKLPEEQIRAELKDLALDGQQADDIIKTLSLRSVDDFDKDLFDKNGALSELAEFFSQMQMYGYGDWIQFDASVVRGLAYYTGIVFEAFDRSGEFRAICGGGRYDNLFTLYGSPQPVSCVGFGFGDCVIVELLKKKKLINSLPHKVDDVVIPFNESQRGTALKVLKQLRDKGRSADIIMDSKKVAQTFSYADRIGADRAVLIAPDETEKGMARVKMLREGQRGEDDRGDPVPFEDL
UniProt Q4DA54, 1-478: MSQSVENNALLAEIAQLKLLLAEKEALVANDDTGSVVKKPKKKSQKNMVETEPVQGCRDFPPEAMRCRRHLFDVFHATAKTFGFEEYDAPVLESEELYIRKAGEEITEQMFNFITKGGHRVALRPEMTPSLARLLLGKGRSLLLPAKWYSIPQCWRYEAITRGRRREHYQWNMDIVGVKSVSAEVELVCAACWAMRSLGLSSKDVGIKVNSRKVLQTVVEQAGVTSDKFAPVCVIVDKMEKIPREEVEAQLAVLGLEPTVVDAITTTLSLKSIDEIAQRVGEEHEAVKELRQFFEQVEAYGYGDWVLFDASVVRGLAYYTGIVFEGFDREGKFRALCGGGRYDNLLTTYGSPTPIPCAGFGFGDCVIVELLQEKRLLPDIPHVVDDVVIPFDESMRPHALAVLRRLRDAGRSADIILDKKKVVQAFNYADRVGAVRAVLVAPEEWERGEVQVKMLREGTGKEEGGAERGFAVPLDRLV

Pks13 thioesterase: 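Enzyme assay of the thioesterase domain of polyketide synthase 13; the read-out is not stated. Target: Polyketide synthase Pks13, Mycobacterium tuberculosis (UniProt I6X8D2). Tested at 30 µM. Higher reads as stronger inhibition (inferred from which compounds were picked for retests). About 67,000 compounds were tested under these conditions; 0.46% (about 300) showed 50% or more at least once.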
Toxoplasma: 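Assay of Toxoplasma gondii numbers, read through their beta-galactosidase reporter with a colour substrate. Tested at 10 µM. The record gives no direction; the compounds picked for IC50 retests had high values, so higher reads as fewer parasites. About 67,000 compounds were tested under these conditions; 0.38% (about 260) showed 50% or more at least once.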
CoaBC: 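Coenzyme A biosynthesis protein CoaBC, Mycobacterium tuberculosis (UniProt P9WNZ1). Enzyme assay of CoaBC with a phosphate dye (Biomol Green) read at 650 nm. Tested at 30 µM. Direction is inferred from only a few compounds that gave an IC50; most scored high, so higher reads as stronger inhibition. Most strong results did not repeat in a second test. About 67,000 compounds were tested under these conditions; 0.06% (about 40) showed 50% or more at least once.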
MtTrpRS: 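Tryptophan-tRNA ligase, Mycobacterium tuberculosis (UniProt P9WFT3). Enzyme assay of tryptophanyl-tRNA synthetase; the read-out is not stated. Tested at 10 µM. Higher most likely means stronger inhibition; the record gives no direction and few retests gave an IC50. About 65,000 compounds were tested under these conditions; 0.098% (about 64) showed 50% or more at least once.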
LiHisRS: 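Histidine-tRNA ligase, Leishmania infantum (UniProt A4I591). Enzyme assay of histidyl-tRNA synthetase; the read-out is not stated. Concentration: 30 µM. Higher reads as stronger inhibition (inferred: compounds with an IC50 in retests scored well above the rest). The assay is labelled LdHisRS but filed under L. infantum. About 69,000 compounds were tested under these conditions; 0.6% (about 410) showed 50% or more at least once.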
TcHisRS: 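Enzyme assay of histidyl-tRNA synthetase; the read-out is not stated. Target: Histidine-tRNA ligase, Trypanosoma cruzi CL Brener (UniProt Q4DA54). Concentration: 30 µM. Direction is inferred from retests: higher values go with stronger inhibition. Size under these conditions: about 69,000 compounds, about 31 of them at 50% or above in at least one test.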

Each number is a percent effect as filed. The controls that fix the scale are not given in the record; negative values are as filed. This is an unselected part of the compounds tested.

{"compound": "CC(C(=O)N1CCN(c2ccc(F)cc2)CC1)n1ccnc1", "stereo": "configuration not stated", "Pks13 thioesterase": -31.76, "Toxoplasma": -7.125, "CoaBC": 3.023, "MtTrpRS": -5.51, "LiHisRS": 19.35, "TcHisRS": 5.844}
{"compound": "O=C(O)C(F)(F)F.O=C(c1ccc[nH]1)N1CCn2cc(Cn3cccn3)nc2C1", "Toxoplasma": -44.54}
{"compound": "Cc1ccc([C@@H]2CN(C(=O)c3ccsc3)C[C@H]2NC(=O)C2CC2)cc1", "Pks13 thioesterase": -3.442, "Toxoplasma": -10.12, "CoaBC": 3.175, "MtTrpRS": -1.215, "LiHisRS": 16.67, "TcHisRS": -1.02}
{"compound": "Cc1nnc(CNC(=O)[C@@H]2C[C@H](NC(=O)C(C)(C)C)CN2C)[nH]1", "Pks13 thioesterase": -15.46, "Toxoplasma": -12.07, "CoaBC": 2.137, "MtTrpRS": -3.926, "LiHisRS": 10.26, "TcHisRS": 4.865}
{"compound": "CN(Cc1ccc(Cl)s1)C(=O)NCc1nnc2n1CCC2", "Pks13 thioesterase": -11.59, "Toxoplasma": -2.323, "CoaBC": 3.506, "MtTrpRS": -3.216, "LiHisRS": 25.76, "TcHisRS": -1.515}
{"compound": "[H][C@@]12CS(=O)(=O)C[C@]1([H])N(C(=O)c1cccc3cccnc13)CCN2CCC", "Toxoplasma": -5.472}
{"compound": "CCOc1ccc(CNCCCn2ccnc2)cc1Cl", "Pks13 thioesterase": -28.05, "CoaBC": -30.19, "MtTrpRS": 3.82, "LiHisRS": 26.67, "TcHisRS": -1.136}
{"compound": "O=C1CCC2(CCOC2)CN1CCCOc1cccnc1", "stereo": "configuration not stated", "Pks13 thioesterase": -16.39, "Toxoplasma": 11.38, "CoaBC": 15.89, "MtTrpRS": -0.149, "LiHisRS": 21.92, "TcHisRS": 4.372}
{"compound": "[H][C@@]12CN(S(=O)(=O)c3ccccc3)C[C@]1([H])OCC(=O)N2c1ccccc1", "Toxoplasma": 18.92}
{"compound": "NC(=O)COc1cccc(Cn2cccn2)c1", "Pks13 thioesterase": -32.59, "Toxoplasma": 2.18, "CoaBC": 3.694, "MtTrpRS": -5.419, "LiHisRS": 5.181, "TcHisRS": 4.972}
{"compound": "CCOC(CC)C(=O)NCc1ccnc(Oc2ccc(F)cc2)c1", "stereo": "configuration not stated", "Pks13 thioesterase": -8.25, "Toxoplasma": -2.424, "CoaBC": 1.493, "MtTrpRS": -5.186, "LiHisRS": 25, "TcHisRS": 5}
{"compound": "[H][C@@]12CCCN1C[C@H](CCSC)N(Cc1cnn(CC)c1C)C2", "Toxoplasma": -0.75}
{"compound": "CCc1oc(C(=O)NCCNS(C)(=O)=O)cc1CN1CCCC1", "Toxoplasma": -1.243, "CoaBC": 0.8264, "MtTrpRS": 7.834, "LiHisRS": -53.33, "TcHisRS": 7.065}
{"compound": "COCCC(=O)N1CCC2(CN(Cc3ccc(OC)c(F)c3)C2)C1", "Toxoplasma": -2.953, "CoaBC": 12.26, "MtTrpRS": -1.727, "LiHisRS": 9.524, "TcHisRS": 0}
{"compound": "CC(C)NC(=O)CN1CCN(CC2CCOc3ccccc3C2)CC1", "stereo": "configuration not stated", "Pks13 thioesterase": 13.12, "Toxoplasma": 6.45, "CoaBC": -2.773, "MtTrpRS": -5.863, "LiHisRS": 9.589, "TcHisRS": 7.921}
{"compound": "CC(C)c1cc(C(=O)N2CCCC2c2nc(-c3ccccc3)no2)[nH]n1", "stereo": "configuration not stated", "Pks13 thioesterase": -3.12, "Toxoplasma": -4.83, "CoaBC": 7.631, "MtTrpRS": -0.09099, "LiHisRS": 13.43, "TcHisRS": -2.128}
{"compound": "CC(C)c1nnc2n1CCN(C(=O)c1ccc(N(C)C)nn1)C2", "Pks13 thioesterase": -1.11, "Toxoplasma": 9.186, "CoaBC": 16.82, "MtTrpRS": 0.000006, "LiHisRS": 1.786, "TcHisRS": 2.305}
{"compound": "CCN(C)C(=O)c1cccc(S(=O)(=O)NCCc2nc(C)cc(=O)[nH]2)c1", "Pks13 thioesterase": -13.52, "Toxoplasma": -22.62, "CoaBC": 12.41, "MtTrpRS": -1.67, "LiHisRS": 17.78, "TcHisRS": 11.52}
{"compound": "Cc1noc(C)c1CN1CCCC2(C1)CN(Cc1nccn1C)CCO2.O=C(O)C(F)(F)F.O=C(O)C(F)(F)F", "stereo": "configuration not stated", "Toxoplasma": 8.056}
{"compound": "CCOC(=O)C1CCCN(c2nccc(-n3nc(C)cc3C)n2)C1", "stereo": "configuration not stated", "Pks13 thioesterase": 4.341, "Toxoplasma": -5.286, "CoaBC": 1.687, "MtTrpRS": 0.3236, "LiHisRS": 16.48, "TcHisRS": 8.911}
{"compound": "O=S(=O)(NCCSc1nccn1C1CC1)c1ccccc1", "Pks13 thioesterase": -4.769, "Toxoplasma": -7.172, "CoaBC": 3.137, "MtTrpRS": 0.3943, "LiHisRS": 11.86, "TcHisRS": 2.439}
{"compound": "CCS(=O)(=O)N1CCC2(CCN(Cc3nccs3)CC2)CC1.O=C(O)C(F)(F)F", "Toxoplasma": -9.205}
{"compound": "Cc1ccc(C(=O)N2CCC3(CC2)NC(=O)CC3c2ccccc2)cn1", "stereo": "configuration not stated", "CoaBC": 0.6345, "MtTrpRS": -0.3148, "LiHisRS": -30.19, "TcHisRS": 3.784}
{"compound": "CCN(Cc1ccncc1)S(C)(=O)=O", "Pks13 thioesterase": -7.417, "Toxoplasma": -3.159, "CoaBC": 8.178, "MtTrpRS": 0.8541, "LiHisRS": 13.27, "TcHisRS": -0.4425}

Some entries from above, unchanged:

- CCN(C)C(=O)c1cccc(S(=O)(=O)NCCc2nc(C)cc(=O)[nH]2)c1 | Pks13 thioesterase: -13.52%; Toxoplasma: -22.62%; CoaBC: 12.41%; MtTrpRS: -1.67%; LiHisRS: 17.78%; TcHisRS: 11.52%
- NC(=O)COc1cccc(Cn2cccn2)c1 | Pks13 thioesterase: -32.59%; Toxoplasma: 2.18%; CoaBC: 3.694%; MtTrpRS: -5.419%; LiHisRS: 5.181%; TcHisRS: 4.972%

Data taken from ChEMBL document CHEMBL3988442, “University of Dundee, Small-Polar-MMV Screening Library” (2021).